# Data reported in PubChem BioAssay AID624297 (National Center for Advancing Translational Sciences (NCATS), 2012).
# Among all 340,000 compounds or so, about 6,200 (1.8%) were called active. The inconclusive results got no clear call from the source; some entries with a clear call stand among them for comparison. The call rests on the fitted dose curve; in most records, active means well fitted activation curve with a large enough effect; inconclusive means small, poorly fitted or top-dose-only effect; inactive means no such curve, though single readings can be large or run the other way. Potencies beside an inconclusive call are fits to weak or partial responses and may not hold up.
# Experiment: A quantitative high throughput screen for small molecules that induce DNA re-replication in SW480 colon adenocarcinoma cells. Further: nearly all actives have a fitted effect of over 55% in size. On re-replication activation: % of control where 0% means no effect.
# Settings: Hoechst DNA content imaging, 48 h; re-replication activation: at 46.1 µM (top of the series) unless noted
# In short: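 Readout is total intensity of Hoechst-stained nuclei, excited at 405 nm and collected at 500-530 nm. Compound treatment lasted 48 hr at 37 C in 5% CO2 before staining.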
# Potency means the concentration at half of the fitted maximal effect.
SMILES,Potency,re-replication activation
COc1ccccc1Nc1nc(-c2cccc([N+](=O)[O-])c2)cs1,"inconclusive: 0.58 µM [activator, partial curve, poor fit]",–
COCCCNC(=O)c1ccc(Cn2c(=O)c3ccccc3n(CC(=O)NCCc3ccc(OC)c(OC)c3)c2=O)cc1,"inconclusive: 29.1 µM [activator, single point]",–
COc1cc(OC)nc(-n2ncc(Br)c(Br)c2=O)n1,–,inactive: 7.3%
Cc1ccc(-c2nnn(CC(=O)N(c3ccc4c(c3)OCCO4)C(C(=O)NCC3CCCO3)c3ccc(F)cc3)n2)o1 (stereo not drawn),active: 16.4 µM,–
CCOC(=O)c1c(NC(=O)c2ccc(Cl)s2)sc(C)c1C,"inconclusive: 23.1 µM [activator, single point]",–
C=C(C)C1CC=C(C)/C(=N/NC(=O)c2ccc(NC(=O)CC)cc2)C1 (stereo not drawn),–,inactive: 2.56%
CCn1c(C)nc2cc(C(=O)NN=C(C)c3ccc(C#N)cc3)ccc21,–,inactive: 6.72%
COc1cccc(C2CC(=O)Nc3cc(OC)c(OC)cc32)c1 (stereo not drawn),"inconclusive: 29.1 µM [activator, single point]",–
c1ccc(CN(Cc2ccccc2)c2nn[nH]n2)cc1,"inconclusive: 2.91 µM [activator, single point]",–
Cc1cc(Nc2ccccc2C(=O)O)n(-c2cccc(Cl)c2)n1,active: 5.17 µM,–
NC(=O)NC(=O)C(OC(=O)CCNS(=O)(=O)c1ccccc1)c1ccccc1 (stereo not drawn),"inconclusive: 29.1 µM [activator, partial curve, poor fit]",–
CC(C)(C)c1cc(C(=O)N2CCc3ccccc3C2)ccn1,–,inactive: -11.8%
CCOC(=O)n1ccn(C)c1=S,–,inactive: -4.32% [at 20.6 µM]
c1ccc2c(Nc3nc4c(s3)CCCC4)cccc2c1,–,inactive: 5.92%
O=c1c2c(-c3ccccc3)csc2ncn1/N=C/c1cccc([N+](=O)[O-])c1O,"inconclusive: 29.1 µM [activator, single point]",–
CCOc1ccc(OCC(=O)NCCS(=O)(=O)N2CCN(c3ccc(F)cc3)CC2)cc1,"inconclusive: 2.59 µM [activator, partial curve]",–
O=[N+]([O-])/C=C/c1cc2ccccc2[nH]1,–,inactive: 0.878%
CC(C)c1ccc(NC(=O)COC(=O)C2CCCCC2)cc1,–,inactive: -1.05%
CC1=CC2C(C(O)CC3(C)C2CC(C)C32OCOC23COCO3)C2(C)C/C(=C\O)C(=O)C=C12 (stereo not drawn),active: 14.6 µM,–
Cc1c(C(C)C)c(=O)n(-c2ccc(S(=O)(=O)NCc3ccccc3)cc2)n1C,–,inactive: -8.11%
O=C(NC(=S)Nc1cccc(NC(=S)NC(=O)c2ccccc2)c1)c1ccccc1,"inconclusive: 25.9 µM [activator, single point]",–
CCc1nn(CCCC(=O)NCc2ccc(OC(C)C)cc2)c(=O)c2cc3occc3n12,"inconclusive: 23.1 µM [activator, single point]",–

SMILES,Potency,re-replication activation
COC(=O)c1ccc(NC(=O)C2CC2)o1,–,inactive: -3.73%
C=C(C)COc1ccc(-c2[nH]ncc2Oc2cccc(OC)c2)c(O)c1,"inconclusive: 29.1 µM [activator, partial curve, poor fit]",–
O=Cc1cn(-c2ccccc2)nc1-c1ccc2c(c1)OCCO2,"inconclusive: 32.6 µM [activator, partial curve, poor fit]",–
C/C(=N\N)c1c(-c2ccccc2)c2cc(C)ccc2[nH]c1=O,"inconclusive: 29.1 µM [activator, single point]",–
CC(C)(C)c1ccc(C2CC2C(=O)N/N=C\c2ccc[nH]2)cc1 (stereo not drawn),"inconclusive: 23.1 µM [activator, single point]",–
COc1ccc(C(=O)Nc2ccccc2C(=O)NCc2cccnc2)cc1,"inconclusive: 29.1 µM [activator, single point]",–
COc1ccc(OC)c(S(=O)(=O)n2cnc3ccccc32)c1,"inconclusive: 5.17 µM [activator, partial curve, poor fit]",–
CCOc1ccccc1CNC(=O)C1CCCN(c2nnc(C)c3c(C)n(-c4ccccc4)nc23)C1 (stereo not drawn),"inconclusive: 23.1 µM [activator, single point]",–
COC(=O)c1ccc(C(=O)OC)c(NC(=O)CN(c2ccccc2)S(=O)(=O)N(C)C)c1,"inconclusive: 29.1 µM [activator, single point]",–
O=C(Nc1nc(-c2nc3ccccc3s2)cs1)C1CC1,"inconclusive: 16.4 µM [activator, partial curve, poor fit]",–
COc1cc2c(cc1OC)C(c1ccc(Br)cc1)N(C(=O)c1ccccc1C(=O)O)CC2 (stereo not drawn),"inconclusive: 0.411 µM [activator, full curve, poor fit]",–
COc1ccccc1N1CCN(Cc2cn[nH]c2-c2ccc(F)cc2)CC1,"inconclusive: 2.91 µM [activator, full curve, poor fit]",–
CCOC(=O)c1[nH]c2cc(OC)c(OC)cc2c1NC(=O)C(C)N1CCN(Cc2ccccc2)CC1 (stereo not drawn),"inconclusive: 35.5 µM [activator, single point]",–
C=C(C)n1c(=O)n(Cc2ccc(C)cc2)c2ccccc21,"inconclusive: 16.4 µM [activator, partial curve, poor fit]",–
COc1ccc(NS(=O)(=O)N2CCOCC2)cc1,"inconclusive: 29.1 µM [activator, single point]",–
C/C(=N\N1C(=O)c2ccccc2NC1c1ccccc1)c1ccccc1O (stereo not drawn),"inconclusive: 13 µM [activator, partial curve, poor fit]",–
Cc1cccc(NC(=S)N2CCN(S(=O)(=O)c3cccc(F)c3)CC2)c1,"inconclusive: 29.1 µM [activator, single point]",–
CC(C)(C)NC(=O)COC(=O)/C=C/c1ccc(F)cc1,–,inactive: -1.21%
Cc1cc(-c2nn(-c3ccccc3F)cc2CN2CCN(c3ccncc3)CC2)c(C)s1,"inconclusive: 29.1 µM [activator, single point]",–
CCOc1ccc(OCC)c(-c2c(=O)n(OCc3ccccc3Br)c3ccccc3[n+]2[O-])c1,"inconclusive: 35.5 µM [activator, partial curve, poor fit]",–
Cc1nc(NC(=O)c2ccc(F)cc2)sc1C(=O)Nc1ccc2c(c1)CCC2,"inconclusive: 29.1 µM [activator, single point]",–

# Grouped by structure: the compounds so far containing a nitro group on carbon (3)
SMILES,Potency,re-replication activation
COc1ccccc1Nc1nc(-c2cccc([N+](=O)[O-])c2)cs1,"inconclusive: 0.58 µM [activator, partial curve, poor fit]",–
O=c1c2c(-c3ccccc3)csc2ncn1/N=C/c1cccc([N+](=O)[O-])c1O,"inconclusive: 29.1 µM [activator, single point]",–
O=[N+]([O-])/C=C/c1cc2ccccc2[nH]1,–,inactive: 0.878%
